Reference: the supplement of paper PMC3334620
Whole data set: some 33,000 sequences, median “E-score (-0.5 to 0.5)” near -8e-05, cut for the highest 2% near 0.23. Some of the results follow.

target: T1, Nrg2 (UniProt P38082); assay: PBM E-score (8-mer binding enrichment) (E-score (-0.5 to 0.5)); higher = stronger / more preferred TF binding; conditions: protein concentration: 100 nM; construct: GST-full length
T1 sequence: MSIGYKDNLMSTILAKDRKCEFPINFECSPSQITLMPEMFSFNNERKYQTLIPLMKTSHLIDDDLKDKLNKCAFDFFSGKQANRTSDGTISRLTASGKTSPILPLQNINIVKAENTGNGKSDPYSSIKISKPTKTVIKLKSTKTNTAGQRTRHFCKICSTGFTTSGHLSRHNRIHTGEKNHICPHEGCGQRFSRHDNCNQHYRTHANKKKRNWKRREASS
Outline: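 Using PURExpress in vitro transcription/translation, GST-tagged yeast transcription factors were made in full-length or DNA-binding-domain form. These were applied at about 100-200 nM to double-stranded universal all-10-mer Agilent arrays, and bound protein was detected with fluorescent anti-GST. Scans were normalised with masliner before the Universal PBM Analysis Suite assigned E-scores to ungapped eight-base words pooled with their reverse complements.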

Row | Sequence | PBM E-score
1 | AAAGAGTA | 0.0331
2 | ACCCGGCC | -0.357
3 | CGGAAGTC | -0.0537
4 | AGCTTTGA | 0.0144
5 | CCTGAAAG | 0.155
6 | GATTGGTA | 0.143
7 | AGGCAACG | 0.0301
8 | GACCCCTC | -0.0409
9 | GACCACAC | -0.0745
10 | GCGCGCGC | 0.415
11 | GGCCCTAC | -0.109
12 | CAGCCGGC | 0.0375
13 | CAGGGTAC | 0.235
14 | AACCCGAT | 0.122
15 | AGAAGGCT | -0.296
16 | GGGAGTGA | -0.0907
17 | CTAACCAA | 0.134
18 | TACGGTAA | 0.0477
19 | CAGCGCTA | 0.00256
20 | CCTGACCC | 0.0998
21 | CCTCGAAG | 0.0341
22 | AGGTTATA | -0.0834
23 | ATAAAGTC | -0.0479
24 | GGCTTCAA | -0.0397
25 | CCGTAGTA | -0.0387

Row | Sequence | PBM E-score
26 | GCTGAACA | 0.00722
27 | ATACTGAT | 0.225
28 | ACAAAATA | 0.112
29 | CCGAACAG | -0.0173
30 | CGTGTAGC | -0.12
31 | GATGAATC | 0.171
32 | ACTCTAAC | 0.0412
33 | CTATACTC | 0.0213
34 | AGCCGCCC | -0.0653
35 | CTCGCGGC | -0.112
36 | AGTCGCAC | -0.16
37 | AATTCTTG | 0.0958
38 | CGATTCCC | 0.18
39 | AGTGAGTG | -0.0728
40 | ACTCTCCA | -0.0535
41 | ATCCCTTC | -0.0663
42 | AACGACGC | -0.17
43 | CAACCCGC | 0.0597
44 | CGCCCAAA | 0.0998
45 | CGCTGAAC | -0.111
46 | GCCAGTGA | -0.183
47 | ACATCACC | -0.072
48 | CCATAAAA | 0.0824
49 | ACAATATG | 0.135
50 | CACTTACG | -0.0647

Given tab-delimited: entries from further up
Row	Sequence	PBM E-score
2	ACCCGGCC	-0.357
3	CGGAAGTC	-0.0537
4	AGCTTTGA	0.0144
5	CCTGAAAG	0.155
6	GATTGGTA	0.143
7	AGGCAACG	0.0301
8	GACCCCTC	-0.0409
9	GACCACAC	-0.0745
10	GCGCGCGC	0.415
11	GGCCCTAC	-0.109
12	CAGCCGGC	0.0375
13	CAGGGTAC	0.235
14	AACCCGAT	0.122
15	AGAAGGCT	-0.296
16	GGGAGTGA	-0.0907
17	CTAACCAA	0.134
18	TACGGTAA	0.0477
19	CAGCGCTA	0.00256
20	CCTGACCC	0.0998
21	CCTCGAAG	0.0341
22	AGGTTATA	-0.0834
23	ATAAAGTC	-0.0479
24	GGCTTCAA	-0.0397
25	CCGTAGTA	-0.0387
26	GCTGAACA	0.00722
27	ATACTGAT	0.225
28	ACAAAATA	0.112
29	CCGAACAG	-0.0173
30	CGTGTAGC	-0.12
31	GATGAATC	0.171
32	ACTCTAAC	0.0412
33	CTATACTC	0.0213
34	AGCCGCCC	-0.0653
35	CTCGCGGC	-0.112
36	AGTCGCAC	-0.16
37	AATTCTTG	0.0958
38	CGATTCCC	0.18
39	AGTGAGTG	-0.0728
40	ACTCTCCA	-0.0535
41	ATCCCTTC	-0.0663
42	AACGACGC	-0.17
43	CAACCCGC	0.0597
44	CGCCCAAA	0.0998
45	CGCTGAAC	-0.111
46	GCCAGTGA	-0.183
47	ACATCACC	-0.072
48	CCATAAAA	0.0824

(further entries)

Row | Sequence | PBM E-score
51 | AACGCCTG | -0.0585
52 | AATATATT | 0.341
53 | CTTGAACC | 0.0101
54 | GACAGCCA | 0.0612
55 | TCACAGAA | -0.0475
56 | AATTTGGG | 0.0597
57 | ACTGCGAG | -0.0584
58 | AGTGCCTA | -0.234
59 | AACTCGAC | 0.138
60 | AGAGCGCA | -0.094
61 | ATCCCAAT | 0.00302
62 | AGTCAATC | 0.118
63 | AAGAGGGT | -0.236
64 | ACAACTGT | 0.00453
65 | CTAGCATC | 0.0495
66 | AAGAGCTC | -0.0862
67 | CGGGACGC | -0.246
68 | ACCCGATC | -0.0721
69 | CACCTAGG | -0.082
70 | AAGTGCAG | -0.246
71 | CTGAGCCC | 0.0871
72 | ATCTCCTA | -0.0802
73 | CTCTCTAA | -0.177
74 | CAATAGAA | -0.0608
75 | AGGTCTCC | -0.238

Row | Sequence | PBM E-score
76 | ACTACACC | -0.0114
77 | ACTACGGG | 0.00019
78 | GCCTGAGC | -0.213
79 | ACGTGCAC | 0.0339
80 | ATGGGGGG | -0.357
81 | GTGGCAAA | -0.0403
82 | GAGCATTA | -0.0114
83 | AGGAACGC | 0.0175
84 | CTTTCGGA | -0.0315
85 | AACTTTAG | -0.011
86 | CGACATGC | 0.0795
87 | AGTTACGA | 0.143
88 | AGGCGGAC | -0.108
89 | AGCCCTCC | -0.175
90 | CGAGGCGA | 0.164
91 | AATACACG | -0.0346
92 | GCTGAAGC | -0.0603
93 | AAGCTCAA | -0.093
94 | CTCTCTTC | -0.132
95 | GATCTTAC | -0.0314
96 | AGCGAGCG | 0.103
97 | GATATTAA | 0.147
98 | GACACGTC | -0.16
99 | CTTCAAGA | -0.113
100 | AGGCTTCG | -0.19

Row | Sequence | PBM E-score
101 | GATCTTAA | -0.0628
102 | ACGCTCCG | -0.12
103 | ACGAGATC | -0.0548
104 | GCACGCGC | 0.0126
105 | GTTAAGGA | -0.0446
106 | AGTAATTG | 0.052
107 | ACTGGGCT | -0.238
108 | AGACTGAC | -0.1
109 | CTTGCCTA | -0.135
110 | ATGTATAG | 0.0189
111 | CGCGTCCC | 0.0884
112 | ATTGCCTA | -0.106
113 | AGTTCGTC | 0.1
114 | CTGCGTCA | -0.0532
115 | CACCGGCA | -0.0523
116 | GGCCAAAA | 0.128
117 | AGATGCGG | 0.0447
118 | CCAACCTA | -0.118
119 | CACCATAG | -0.184
120 | CATAACAC | -0.0348
121 | ACGACACC | 0.101
122 | CATCTCAG | 0.23
123 | CATGCAAA | 0.246
124 | CAGCTGCG | -0.0101
125 | GTACTTCA | 0.226

Row | Sequence | PBM E-score
126 | CTATCGAA | 0.0945
127 | AACCACCG | -0.0351
128 | ACGCGGAA | -0.0174
129 | ACCGTAGA | -0.0561
130 | CGTACACG | 0.00349
131 | AAGGGCGG | 0.0821
132 | GACATTTA | -0.114
133 | CATCATCA | -0.0392
134 | AGCACTCA | -0.0775
135 | ACGGTGGC | -0.0523
136 | AAAGAAGA | -0.0242
137 | CGTTGGAC | -0.192
138 | AACGCAGG | 0.0653
139 | CCGGTATC | -0.227
140 | ACCCGGTG | -0.0744
141 | CAAATGGC | -0.122
142 | ACGATGAA | 0.0792
143 | AATTCCAT | 0.0917
144 | CGGTCTGC | -0.0735
145 | CGACGAAA | 0.0993
146 | GATAACCC | -0.0928
147 | ATTGTCCC | 0.0633
148 | GACTTGGA | -0.141
149 | AGGGTTAA | 0.00717
150 | CTGCTATC | 0.158

Individual results from the results shown:
Under PBM E-score, CGGTCTGC is listed with -0.0735
Under PBM E-score, AGTTACGA is listed with 0.143
Under PBM E-score, ACGATGAA is listed with 0.0792
Under PBM E-score, CTTGAACC is listed with 0.0101
Under PBM E-score, ATCCCAAT is listed with 0.00302

Later entries

Row | Sequence | PBM E-score
151 | GGTCTTGA | -0.0327
152 | CTGAGGAA | 0.0159
153 | AATTCGGG | 0.105
154 | AAAGCCAG | -0.0713
155 | ACATTTGC | 0.144
156 | ACAGAATG | 0.0254
157 | AAAACGCA | -0.0152
158 | GGCCGCTA | -0.267
159 | ACAACCCG | -0.109
160 | AATGGACC | 0.146
161 | ATAGTATC | 0.183
162 | ACCTGATG | -0.115
163 | AGCAAGTA | 0.0271
164 | GAGAATAC | 0.101
165 | CATGACAA | 0.184
166 | CCTCTAGC | -0.0815
167 | ACGCCATA | -0.00018
168 | CAGCCAGG | 0.0441
169 | AAGCCGCG | -0.025
170 | CCCCGTCC | -0.35
171 | CCGCATGA | -0.0399
172 | ACTGCCAG | 0.0319
